“Also recorded” adds a separate entry of the source. For at least one compound, name, drawing or mass did not settle the structure.
How the values were obtained:
[1] = tested on: glucocorticoid receptor; experiment: Rescue of LQT in bkd−/− after glucocorticoid receptor knockdown; assay type: in vivo, zebrafish
[2] = tested on: zebrafish LQT2 breakdance (bkd−/−) embryos; experiment: Small molecule suppressor screen, rescue of 2:1 AV block in breakdance embryos; assay type: in vivo; details: 10 ng/μL added at 48 hpf, scored at 72 hpf
[3] = tested on: tb218 (bkd−/−) fish; experiment: Dose response and time series, suppression of the breakdance phenotype; assay type: in vivo, zebrafish; details: scored at indicated times

Structure (SMILES) | effect of glucocorticoid receptor knockdown on rescue of LQT [1] | embryos in the well in which the 2:1 AV block was ameliorated (three embryos per well) [2] | time series of rescue [3]
C[C@@H]1C[C@H]2[C@@H]3CCC4=CC(=O)C=C[C@]4(C)[C@@]3(F)[C@@H](O)C[C@]2(C)[C@@]1(O)C(=O)CO [dexamethasone] | blocks rescue |  | 
CC1(C)O[C@@H]2C[C@H]3[C@@H]4C[C@H](F)C5=CC(=O)CC[C@]5(C)[C@H]4[C@@H](O)C[C@]3(C)[C@]2(C(=O)CO)O1 [flurandrenolide] | blocks rescue; also recorded: abrogated | all three embryos | higher rescue at later time points

— patent US9447027B2, “Treating long QT syndrome” (The General Hospital Corporation, priority 2010, dated 2016)
